For this assay, the target named is forkhead box protein O3a (mouse (endogenous in ovaries)) (UniProt Q9WVH4). The experiment in a line: co-IP; ovaries of F0 SD and F0 HFD (4 weeks of high-fat diet) female mice lysed in IP buffer (KCl 50 mM, Tris-HCl 50 mM pH 8, EDTA 10 mM, 1% Nonidet P-40); 1-2 ug specific antibody or IgG with protein G-sepharose, 6 h at 4 °C, six washes; SDS-PAGE and immunoblotting. In general terms: In western blotting, separated proteins are transferred to a membrane and probed.

Protein sequences, listed by entry. Tags and fused reporters are not part of them.
UniProt Q9WVH4: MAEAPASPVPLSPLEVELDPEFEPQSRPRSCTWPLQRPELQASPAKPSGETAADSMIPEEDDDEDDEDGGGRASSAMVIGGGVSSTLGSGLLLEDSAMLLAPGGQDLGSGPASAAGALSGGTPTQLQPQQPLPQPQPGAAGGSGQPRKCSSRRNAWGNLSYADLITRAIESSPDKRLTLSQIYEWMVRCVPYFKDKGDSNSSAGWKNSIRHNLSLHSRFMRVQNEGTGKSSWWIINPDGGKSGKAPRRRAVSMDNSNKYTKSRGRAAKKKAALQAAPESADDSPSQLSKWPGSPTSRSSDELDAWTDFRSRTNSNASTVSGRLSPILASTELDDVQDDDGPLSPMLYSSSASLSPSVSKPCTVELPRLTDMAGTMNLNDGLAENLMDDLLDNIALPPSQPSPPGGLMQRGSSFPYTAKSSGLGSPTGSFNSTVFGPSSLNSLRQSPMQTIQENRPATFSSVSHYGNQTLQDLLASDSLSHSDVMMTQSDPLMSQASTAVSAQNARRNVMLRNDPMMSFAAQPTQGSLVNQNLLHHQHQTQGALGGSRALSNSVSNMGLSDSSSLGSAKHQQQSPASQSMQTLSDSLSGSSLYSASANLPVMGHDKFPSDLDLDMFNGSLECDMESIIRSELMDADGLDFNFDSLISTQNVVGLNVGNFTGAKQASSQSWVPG
UniProt P70288: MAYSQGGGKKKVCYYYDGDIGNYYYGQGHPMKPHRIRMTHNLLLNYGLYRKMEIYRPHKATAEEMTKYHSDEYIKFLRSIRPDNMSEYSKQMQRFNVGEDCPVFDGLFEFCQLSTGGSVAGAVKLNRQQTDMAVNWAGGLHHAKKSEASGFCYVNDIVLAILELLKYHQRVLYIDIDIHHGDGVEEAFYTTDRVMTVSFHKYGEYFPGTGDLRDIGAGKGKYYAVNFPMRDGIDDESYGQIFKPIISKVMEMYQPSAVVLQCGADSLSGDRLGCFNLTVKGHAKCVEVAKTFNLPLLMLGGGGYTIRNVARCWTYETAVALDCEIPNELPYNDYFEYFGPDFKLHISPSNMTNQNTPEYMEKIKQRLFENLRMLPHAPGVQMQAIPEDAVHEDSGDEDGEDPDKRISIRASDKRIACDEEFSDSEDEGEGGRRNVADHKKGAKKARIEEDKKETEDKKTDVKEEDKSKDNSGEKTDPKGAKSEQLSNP

Results are given in words; binding and its absence hold for the method and conditions named. Binding seen in cells or lysates may run through a third protein. Some binding calls cover weakened binding; strength is not graded here.

As to HDAC2 (from UniProt P70288 1-488), the binding result is “binds”.

The record behind these values is PMC6805915.
